This sample is rich in variants without activity.
B1: tRNA (parent)
chain: GUUCCGUUGGCGUAAUGGUAACGCGUCUCCCUCCUAAGGAGAAGACUGCGGGUUCGAGUCCCGUACGGAACG

Variants of: B1
Assay: yeast fitness relative to wild type (ratio to wild type); higher = fitter; tRNA-Arg(CCU), competitive growth, 37 C, YPD
Summary of the method: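 A pool of Saccharomyces cerevisiae strains, each with a tRNA-Arg(CCU) gene variant at the native genomic locus, was competed in YPD at 37°C for 24 hours across six parallel replicates. The variants had been chemically synthesised at a 3% per-site mutation rate over 69 sites, and gene amplicons before and after competition were read by 100-nucleotide paired-end sequencing. Darwinian fitness relative to wild type rested on changes in genotype frequencies. Genotypes required ≥ 100 starting reads, and estimates < 0.5 were set to 0.5.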

Variant | yeast fitness
U8A G18C G41A | ≤ 0.5
A20C C31G G48A G50C C60G | 0.722
U2G U13C A21G U35A C49U C55U A65G | ≤ 0.5
U3G A21G G38C | ≤ 0.5
C22A U47G C55A | ≤ 0.5
C30A A37G A57G U64A | ≤ 0.5
C30G G52C G58U | ≤ 0.5
A15U A20U C27G C49G | 0.64
G6A G12C A37U | ≤ 0.5
C27G C31G A65C | ≤ 0.5
A21U C46G U54C | ≤ 0.5
C4G C34U A57G C60A | ≤ 0.5
U7A C22A A57C | ≤ 0.5
U2A A20C C33A C55U | ≤ 0.5
A37G U47A C55A G58C | ≤ 0.5
G23A C31U G48C C55G | ≤ 0.5
G17A U32C C34A G52U | ≤ 0.5
C33U A36C A40G | ≤ 0.5
U3G C5G G10A C31G G58C G67C | ≤ 0.5
U19G C33U A42U C61U | ≤ 0.5
U32A A70C | 0.741
G17A A42G G52C | ≤ 0.5
G23A C33G C49U A70U | ≤ 0.5
C11U C49A A57C | ≤ 0.5

Variant | yeast fitness
C27U C31G A69C | 0.604
C11U G44C C49G A57C | ≤ 0.5
A36G A70G | 0.914
A14U A15U C34G A69C | ≤ 0.5
C11A G12C U26C G67A | ≤ 0.5
C11A C22G C29G | ≤ 0.5
C4U G23A G56C | ≤ 0.5
U35C C66U | 0.781
C27A G44A A57C | ≤ 0.5
C29A C49U | 0.627
G6C C22U C24G C27U C29A C30U C31G G58A | ≤ 0.5
U2G C5A U32C A36U G38A G50A | ≤ 0.5
U16A A37U G63A | ≤ 0.5
A15U C24G U35G C60G | ≤ 0.5
U19G C22U A70U | 0.746
C4U U32G U53A G68A | ≤ 0.5
A14U A15C A40G G56C | ≤ 0.5
C11U C22U C24U U53A | ≤ 0.5
U3C C33G A45C G50C | ≤ 0.5
A21U C30A A42G G67A | ≤ 0.5
A14G C22U A37U A65U | ≤ 0.5
C4U U35C | 0.715
C24U A45G A69U | 0.888
A37G G44C U54C A57U G68C | ≤ 0.5

Variant | yeast fitness
G25U A36U G56C C62U G63A C66G | ≤ 0.5
G18C C30G U32C C62A | ≤ 0.5
A37G A42U C62A A65C | ≤ 0.5
A20C C24A C29U | ≤ 0.5
U2G C61A A65G C66U | ≤ 0.5
C24A U47G G68A | ≤ 0.5
U2G A15G G17A G52C | ≤ 0.5
A21C G25C U26G C60G A65G | ≤ 0.5
C22U U35C G51A C55A C66U | ≤ 0.5
A15U C34G C55U | ≤ 0.5
C5G C29U G44C | ≤ 0.5
C46U U59G | 0.962
C5U C27G C31U U53C | ≤ 0.5
U3A A14G G23C C61U G67U | ≤ 0.5
G9A G12A U19G U35C A40U | ≤ 0.5
U16G C27U U28A G52C U54A C66U | ≤ 0.5
U19C G50A G56A | 0.749
A43G A45G C55U G68A | ≤ 0.5
A20U C22G G23A A43U G50A | ≤ 0.5
A15G A21U C24U G38A | ≤ 0.5
U3C G10C C46U C66U | ≤ 0.5
C4U C27A U35C A65C A69C | ≤ 0.5
C31A C33A | 0.509
U13C U16A U19A C31A G39C | ≤ 0.5

Variant | yeast fitness
C4U A14C A15U | ≤ 0.5
U3C G38C C62G | ≤ 0.5
A20C G23C G56C A65C G68A | ≤ 0.5
A65U A70G | 1.05
C11G U13C C29U C30U | ≤ 0.5
U26C C34A C46U A57C | ≤ 0.5
C11G C27A C34U A42U C55U | ≤ 0.5
U2G C11G C24U | ≤ 0.5
A15U A69C | 0.77
U8C C11G C29A C61U | ≤ 0.5
G9A G12U A14U U53A G67A | ≤ 0.5
C22G C34A A36U C49U C62U G67A | ≤ 0.5
C5G A21C C33G C55A | ≤ 0.5
U28G C30G A40C A42U C66U | ≤ 0.5
G25C A36U G56C A65C | ≤ 0.5
C4G G23C C55U A70U | ≤ 0.5
C34U C46U A69G A70U | ≤ 0.5
G18C A43C | 0.719
A42U C62A G67C | ≤ 0.5
C24A C31A A43U | ≤ 0.5
C11A U26A U54A | ≤ 0.5
C29G C55G A65C G68C | ≤ 0.5
C5A C22U C34G A36U G56C | ≤ 0.5
C11G A36U G48A G58C U59C | ≤ 0.5

Variant | yeast fitness
C11U C29U A57U C61U | ≤ 0.5
U35G G50A C55U A69C | ≤ 0.5
C22G A37C A45U G52A G67A | ≤ 0.5
G25A G39A G50C G51C A69C | ≤ 0.5
U16C C22U A37U C49A C62U C66U | ≤ 0.5
C34U A37C A65U | ≤ 0.5
U7G A21C G44C A65U | ≤ 0.5
C27U U47G G50A | ≤ 0.5
C4A C31U C46A | 0.726
G38C A40U C60U U64A C66A G68A A69G | ≤ 0.5
U8A U16G C30U C33G A37C A43G | ≤ 0.5
C11A A37G C49G | ≤ 0.5
C27U U32C C62G | ≤ 0.5
C31G G56C C61G | ≤ 0.5
C5G U16A G25A C46U G51C U64A | ≤ 0.5
C11G U32C C33G | ≤ 0.5
U2C U28A G67A | ≤ 0.5
A14G G39C C46G C49G | ≤ 0.5
G12A U28A A37G C46U | ≤ 0.5
C11A C27U A57U | ≤ 0.5
C5G A15U C30A C31A | ≤ 0.5
C62U U64A G67C | ≤ 0.5
C5U A20G U35C A37G | ≤ 0.5
C27U U32G G44A A57G | ≤ 0.5

Variant | yeast fitness
U26C G58A | 1
C4U U8C A36G A40C G44C | ≤ 0.5
U7A A21G C30G A36G C46G | ≤ 0.5
C11U C31A G41C C60G | ≤ 0.5
A15U C34U A70U | ≤ 0.5
C27A G39C | 0.616
C4U G6C U16C G67A | ≤ 0.5
C31U A45U C60U | ≤ 0.5
U13A A21G A42C C62U | ≤ 0.5
G6A G48C G58A | 0.57
C11A A15C C24G U59A G68A | ≤ 0.5
U3C A14G C30U A45C C46G | ≤ 0.5
A15G U53A U64G G67C | ≤ 0.5
G17A A20G C62G | ≤ 0.5
C11G C24A C29A C61U | ≤ 0.5
U3A G23A U32A C66U | ≤ 0.5
C11U U26C U47C | 0.799
C11U U35A C55U G68C | ≤ 0.5
U8C G12A A42C C55U | ≤ 0.5
U16C A21U C30U C34G A36C A57C | ≤ 0.5
G48C U53C | 0.694
A14U A40U U54A C55U U64C | ≤ 0.5
C27G C31U C34G A37G G51A G56A G67C | ≤ 0.5
G18A A21U U26C G48A | ≤ 0.5

Variant | yeast fitness
C49G C60A A70U | ≤ 0.5
A15C G48A | 0.946
C29G A40U C60G | ≤ 0.5
G9C C31A C49G A57U | ≤ 0.5
C30A C31U C55G | ≤ 0.5
U2A C11U G17A | ≤ 0.5
U28G C29A G41A C46G | ≤ 0.5
G9A A20U C34G A42U G68C | ≤ 0.5
C11A A21C C31A G67C | ≤ 0.5
C24A U64C | 0.706
U2A G6C U16C C24U C46G C49A C61U | ≤ 0.5
U3C A15G A36G A70G | ≤ 0.5
U7C U26G G44A G48A G50C | ≤ 0.5
C11A A21C C55U C61A C62U G67C | ≤ 0.5
G9A C11A U35C A43G U64A | ≤ 0.5
A20G G38A C46U G52C A57C U59A | ≤ 0.5
G12C C24U C46U C49G C62A | ≤ 0.5
U3C C5G A21G U32C A65U G68A | ≤ 0.5
U16C U26A A43U C62U | ≤ 0.5
C24U U32G G51A | ≤ 0.5
G6A C29A C31G A69U | ≤ 0.5
G18A U32C A43U | ≤ 0.5
A40G C61G | 0.628
